# Data published in the supplement of paper PMC10849652.
# The chains behind the UniProt entries cited, without tags or fusion partners. Where a name states a change or a piece, a line headed by the entry shows the natural chain unless it says otherwise.
# UniProt Q9BY50: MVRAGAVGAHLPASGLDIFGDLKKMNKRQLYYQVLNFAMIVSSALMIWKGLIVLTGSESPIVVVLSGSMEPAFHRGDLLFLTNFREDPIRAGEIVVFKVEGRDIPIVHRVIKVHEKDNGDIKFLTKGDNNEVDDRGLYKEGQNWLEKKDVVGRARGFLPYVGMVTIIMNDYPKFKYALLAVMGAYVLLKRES
# UniProt P25815: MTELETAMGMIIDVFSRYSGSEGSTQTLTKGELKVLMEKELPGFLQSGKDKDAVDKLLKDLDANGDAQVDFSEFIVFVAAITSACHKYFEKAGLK
# UniProt Q9Y6U3: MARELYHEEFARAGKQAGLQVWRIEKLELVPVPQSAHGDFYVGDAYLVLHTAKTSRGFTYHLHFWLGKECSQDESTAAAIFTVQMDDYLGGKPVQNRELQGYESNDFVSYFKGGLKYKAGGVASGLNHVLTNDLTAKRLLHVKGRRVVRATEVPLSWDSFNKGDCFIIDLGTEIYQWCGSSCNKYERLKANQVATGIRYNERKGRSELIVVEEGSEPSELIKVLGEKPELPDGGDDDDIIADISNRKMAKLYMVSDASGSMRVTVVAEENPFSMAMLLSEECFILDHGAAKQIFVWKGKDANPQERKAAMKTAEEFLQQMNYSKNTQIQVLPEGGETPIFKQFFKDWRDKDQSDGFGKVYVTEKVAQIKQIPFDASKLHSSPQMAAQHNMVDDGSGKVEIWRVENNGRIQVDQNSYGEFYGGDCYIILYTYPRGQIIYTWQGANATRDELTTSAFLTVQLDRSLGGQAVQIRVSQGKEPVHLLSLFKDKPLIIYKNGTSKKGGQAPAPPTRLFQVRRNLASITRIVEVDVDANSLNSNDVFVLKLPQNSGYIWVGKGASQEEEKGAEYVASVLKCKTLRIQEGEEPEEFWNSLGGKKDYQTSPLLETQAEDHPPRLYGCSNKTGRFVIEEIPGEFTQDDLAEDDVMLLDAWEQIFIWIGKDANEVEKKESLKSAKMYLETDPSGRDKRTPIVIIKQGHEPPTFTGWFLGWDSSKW
# UniProt Q9BY42: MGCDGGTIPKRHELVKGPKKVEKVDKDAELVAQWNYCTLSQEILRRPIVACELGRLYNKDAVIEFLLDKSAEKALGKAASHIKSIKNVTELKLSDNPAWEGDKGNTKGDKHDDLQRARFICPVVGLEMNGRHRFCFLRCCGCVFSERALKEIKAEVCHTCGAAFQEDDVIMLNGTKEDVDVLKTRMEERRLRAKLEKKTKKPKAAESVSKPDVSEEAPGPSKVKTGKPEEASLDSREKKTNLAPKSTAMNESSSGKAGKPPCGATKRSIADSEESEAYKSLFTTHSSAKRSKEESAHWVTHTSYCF
# UniProt Q8WXD2: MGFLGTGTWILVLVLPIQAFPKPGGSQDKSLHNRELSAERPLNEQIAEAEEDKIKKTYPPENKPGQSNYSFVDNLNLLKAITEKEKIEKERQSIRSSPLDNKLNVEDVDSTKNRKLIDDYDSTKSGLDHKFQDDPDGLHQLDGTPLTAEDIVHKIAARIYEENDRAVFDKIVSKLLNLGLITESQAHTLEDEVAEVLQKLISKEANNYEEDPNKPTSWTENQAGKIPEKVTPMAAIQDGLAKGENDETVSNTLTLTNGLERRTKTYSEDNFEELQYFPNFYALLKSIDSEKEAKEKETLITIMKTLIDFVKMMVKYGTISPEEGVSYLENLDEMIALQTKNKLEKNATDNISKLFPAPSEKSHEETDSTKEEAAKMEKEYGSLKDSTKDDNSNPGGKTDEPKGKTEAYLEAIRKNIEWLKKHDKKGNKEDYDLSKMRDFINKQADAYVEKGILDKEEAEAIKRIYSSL
# UniProt O43819: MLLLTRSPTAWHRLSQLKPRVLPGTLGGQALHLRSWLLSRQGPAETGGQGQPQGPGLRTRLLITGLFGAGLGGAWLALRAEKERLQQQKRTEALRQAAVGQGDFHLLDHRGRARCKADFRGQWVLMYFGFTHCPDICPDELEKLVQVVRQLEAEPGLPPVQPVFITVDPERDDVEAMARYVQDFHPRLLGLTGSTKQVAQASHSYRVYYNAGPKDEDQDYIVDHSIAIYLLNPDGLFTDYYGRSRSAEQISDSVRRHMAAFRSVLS
# UniProt O15126: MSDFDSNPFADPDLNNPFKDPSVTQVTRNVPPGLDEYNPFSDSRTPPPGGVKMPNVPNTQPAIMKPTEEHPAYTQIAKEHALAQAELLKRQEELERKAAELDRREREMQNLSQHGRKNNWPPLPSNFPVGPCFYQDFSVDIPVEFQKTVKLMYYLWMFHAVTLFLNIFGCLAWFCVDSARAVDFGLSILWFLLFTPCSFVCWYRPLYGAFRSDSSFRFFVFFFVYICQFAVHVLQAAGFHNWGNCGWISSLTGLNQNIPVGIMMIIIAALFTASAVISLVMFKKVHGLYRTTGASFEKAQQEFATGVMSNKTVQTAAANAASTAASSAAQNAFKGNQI
# UniProt O14828: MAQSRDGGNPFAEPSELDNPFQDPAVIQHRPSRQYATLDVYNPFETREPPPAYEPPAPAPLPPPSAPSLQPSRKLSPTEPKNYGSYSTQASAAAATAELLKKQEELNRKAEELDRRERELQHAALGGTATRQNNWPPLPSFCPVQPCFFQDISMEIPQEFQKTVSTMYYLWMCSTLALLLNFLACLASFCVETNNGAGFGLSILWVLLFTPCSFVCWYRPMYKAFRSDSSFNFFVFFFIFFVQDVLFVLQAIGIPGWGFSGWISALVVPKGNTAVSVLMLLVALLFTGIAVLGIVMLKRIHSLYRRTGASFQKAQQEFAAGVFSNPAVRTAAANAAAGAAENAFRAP
# UniProt Q5JTH9: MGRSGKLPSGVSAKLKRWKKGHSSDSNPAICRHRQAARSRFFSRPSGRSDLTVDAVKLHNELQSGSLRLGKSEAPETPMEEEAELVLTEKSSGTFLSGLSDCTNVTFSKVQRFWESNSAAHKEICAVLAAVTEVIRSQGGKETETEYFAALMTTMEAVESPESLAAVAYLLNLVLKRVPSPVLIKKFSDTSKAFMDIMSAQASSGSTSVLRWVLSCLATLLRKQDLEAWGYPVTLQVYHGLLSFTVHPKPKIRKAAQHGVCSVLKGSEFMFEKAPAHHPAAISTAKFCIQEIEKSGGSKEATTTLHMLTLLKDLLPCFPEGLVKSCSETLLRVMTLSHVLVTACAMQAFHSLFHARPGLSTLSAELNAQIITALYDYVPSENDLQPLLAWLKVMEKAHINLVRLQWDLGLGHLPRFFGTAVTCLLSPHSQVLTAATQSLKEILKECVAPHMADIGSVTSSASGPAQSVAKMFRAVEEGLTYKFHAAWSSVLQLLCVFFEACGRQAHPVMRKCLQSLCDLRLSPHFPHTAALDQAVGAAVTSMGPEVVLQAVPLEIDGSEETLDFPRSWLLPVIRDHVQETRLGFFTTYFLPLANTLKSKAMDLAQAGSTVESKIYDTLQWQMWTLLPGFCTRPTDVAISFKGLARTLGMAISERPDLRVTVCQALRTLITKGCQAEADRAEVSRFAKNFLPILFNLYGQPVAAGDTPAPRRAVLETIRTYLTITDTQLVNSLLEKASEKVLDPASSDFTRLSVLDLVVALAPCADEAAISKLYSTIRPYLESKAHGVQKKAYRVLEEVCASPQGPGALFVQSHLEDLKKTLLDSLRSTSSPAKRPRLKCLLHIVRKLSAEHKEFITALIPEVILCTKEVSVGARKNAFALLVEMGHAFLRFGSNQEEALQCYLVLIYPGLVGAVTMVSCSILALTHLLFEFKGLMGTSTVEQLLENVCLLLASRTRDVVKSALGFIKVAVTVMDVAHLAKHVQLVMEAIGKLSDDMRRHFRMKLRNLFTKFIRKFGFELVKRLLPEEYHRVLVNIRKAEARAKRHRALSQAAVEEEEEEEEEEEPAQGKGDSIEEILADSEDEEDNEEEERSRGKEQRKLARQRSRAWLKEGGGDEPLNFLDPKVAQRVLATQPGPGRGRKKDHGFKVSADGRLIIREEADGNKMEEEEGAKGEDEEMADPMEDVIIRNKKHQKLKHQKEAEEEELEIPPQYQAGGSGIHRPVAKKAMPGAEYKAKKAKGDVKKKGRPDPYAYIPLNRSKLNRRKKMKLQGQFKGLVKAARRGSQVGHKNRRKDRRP
# UniProt P67812: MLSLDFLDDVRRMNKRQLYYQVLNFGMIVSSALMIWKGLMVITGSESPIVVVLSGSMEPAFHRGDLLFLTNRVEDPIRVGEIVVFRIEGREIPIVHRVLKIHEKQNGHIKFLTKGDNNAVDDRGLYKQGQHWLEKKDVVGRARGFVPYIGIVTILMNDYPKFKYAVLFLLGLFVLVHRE
# UniProt O00422: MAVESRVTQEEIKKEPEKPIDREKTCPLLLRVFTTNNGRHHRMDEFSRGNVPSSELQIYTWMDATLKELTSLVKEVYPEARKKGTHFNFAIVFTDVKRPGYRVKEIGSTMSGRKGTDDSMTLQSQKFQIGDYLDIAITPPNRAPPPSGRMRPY
# UniProt Q14108: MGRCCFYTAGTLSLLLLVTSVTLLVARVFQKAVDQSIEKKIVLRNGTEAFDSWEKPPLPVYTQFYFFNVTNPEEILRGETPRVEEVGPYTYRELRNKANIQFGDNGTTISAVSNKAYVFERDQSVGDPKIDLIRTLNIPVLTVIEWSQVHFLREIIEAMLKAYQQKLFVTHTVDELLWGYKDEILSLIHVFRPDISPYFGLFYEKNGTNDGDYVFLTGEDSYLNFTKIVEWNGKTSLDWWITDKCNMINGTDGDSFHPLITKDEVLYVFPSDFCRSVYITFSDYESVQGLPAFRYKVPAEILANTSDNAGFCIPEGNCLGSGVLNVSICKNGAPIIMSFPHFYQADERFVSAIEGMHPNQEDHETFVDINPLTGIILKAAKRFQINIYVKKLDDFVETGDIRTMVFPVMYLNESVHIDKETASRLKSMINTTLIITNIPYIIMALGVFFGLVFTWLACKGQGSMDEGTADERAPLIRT
# UniProt Q9H446: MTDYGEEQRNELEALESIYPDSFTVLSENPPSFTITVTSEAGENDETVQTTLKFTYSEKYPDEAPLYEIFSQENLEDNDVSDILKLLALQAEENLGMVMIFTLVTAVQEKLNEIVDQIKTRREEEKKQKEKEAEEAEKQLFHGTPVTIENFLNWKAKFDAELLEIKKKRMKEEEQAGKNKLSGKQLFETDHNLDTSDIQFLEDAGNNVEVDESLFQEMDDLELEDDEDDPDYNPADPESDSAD
# UniProt Q8WWV3: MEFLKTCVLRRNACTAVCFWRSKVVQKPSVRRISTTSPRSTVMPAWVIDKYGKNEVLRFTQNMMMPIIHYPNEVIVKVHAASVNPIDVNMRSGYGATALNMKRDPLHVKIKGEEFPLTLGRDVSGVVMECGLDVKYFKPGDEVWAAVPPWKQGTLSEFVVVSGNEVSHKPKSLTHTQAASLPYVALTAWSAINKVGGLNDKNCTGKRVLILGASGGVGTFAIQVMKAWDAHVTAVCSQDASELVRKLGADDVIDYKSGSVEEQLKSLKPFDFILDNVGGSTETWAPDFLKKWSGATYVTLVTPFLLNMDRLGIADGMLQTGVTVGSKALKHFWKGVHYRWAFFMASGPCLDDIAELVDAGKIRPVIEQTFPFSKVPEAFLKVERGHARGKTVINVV
# UniProt Q96BU1: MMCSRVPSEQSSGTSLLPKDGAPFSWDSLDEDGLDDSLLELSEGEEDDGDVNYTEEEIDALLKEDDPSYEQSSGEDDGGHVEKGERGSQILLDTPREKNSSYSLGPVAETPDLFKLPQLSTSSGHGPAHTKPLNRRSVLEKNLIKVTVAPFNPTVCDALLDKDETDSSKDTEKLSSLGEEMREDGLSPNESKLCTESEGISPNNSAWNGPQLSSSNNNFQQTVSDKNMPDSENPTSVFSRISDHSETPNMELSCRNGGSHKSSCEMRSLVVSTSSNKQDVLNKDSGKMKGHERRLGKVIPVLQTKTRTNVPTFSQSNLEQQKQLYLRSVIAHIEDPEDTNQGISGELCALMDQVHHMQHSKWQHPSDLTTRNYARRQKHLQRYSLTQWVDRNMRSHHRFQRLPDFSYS
# UniProt Q9Y3I0: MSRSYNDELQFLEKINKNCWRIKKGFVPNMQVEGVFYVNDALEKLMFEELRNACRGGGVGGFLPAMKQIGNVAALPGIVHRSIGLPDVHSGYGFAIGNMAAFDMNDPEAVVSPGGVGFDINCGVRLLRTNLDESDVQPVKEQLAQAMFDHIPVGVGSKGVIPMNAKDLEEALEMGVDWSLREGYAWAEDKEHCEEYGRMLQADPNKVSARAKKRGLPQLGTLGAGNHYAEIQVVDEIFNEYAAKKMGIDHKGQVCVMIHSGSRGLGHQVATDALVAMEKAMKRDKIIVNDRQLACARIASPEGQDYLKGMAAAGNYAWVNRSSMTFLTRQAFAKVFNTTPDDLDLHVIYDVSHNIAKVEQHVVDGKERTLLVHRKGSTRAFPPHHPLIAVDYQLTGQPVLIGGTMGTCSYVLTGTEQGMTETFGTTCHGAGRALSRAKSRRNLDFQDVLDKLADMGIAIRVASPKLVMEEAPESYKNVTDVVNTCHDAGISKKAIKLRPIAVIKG
# UniProt Q9Y6B6: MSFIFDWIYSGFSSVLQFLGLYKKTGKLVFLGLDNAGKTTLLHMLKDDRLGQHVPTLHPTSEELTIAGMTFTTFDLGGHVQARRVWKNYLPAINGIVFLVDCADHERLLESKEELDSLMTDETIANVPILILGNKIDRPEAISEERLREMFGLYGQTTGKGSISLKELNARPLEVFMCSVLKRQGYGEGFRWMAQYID
# The other results are listed elsewhere or left out.
# Compound: O=C(CCCCCCC(=O)Nc1ccccc1)NO [vorinostat]
# Assay: log2 fold change, soluble protein after heating vs DMSO (PISA); higher = thermal stabilisation; K562 cells, 10 uM, 30 min; active = over 0.2 and 3.5 SD of the protein, either way, in both replicates (recomputed)
# Method in brief: (§1)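 Values are thermal stability changes relative to control samples and are taken from duplicates. They are stated as log2 fold changes. Before quantification by TMTpro 16plex LC-MS/MS with equalised channel sums, K562 cells at 2×10^6 cells/mL were treated with 10 μM compound for 30 min, heated in aliquots for 3 min across 48°C-58°C, pooled, extracted in PBS with 0.5% NP-40 at 4°C, and centrifuged at 21,000xg for 90 min to give the soluble supernatant.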
row,Target,log2 fold change
1,SEC11C (UniProt Q9BY50),inactive: 0.003
2,S100P (UniProt P25815),inactive: -0.163
3,SCIN (UniProt Q9Y6U3),inactive: 0.173
4,RTF2 (UniProt Q9BY42),inactive: -0.062
5,SCG3 (UniProt Q8WXD2),inactive: 0.025
6,SCO2 (UniProt O43819),inactive: 0.011
7,SCAMP1 (UniProt O15126),inactive: 0.005
8,SCAMP3 (UniProt O14828),inactive: -0.046
9,RRP12 (UniProt Q5JTH9),inactive: 0.072

# Compound: O=C(CCCCCCNC(=O)c1cnc(N(c2ccccc2)c2ccccc2Cl)nc1)NO [citarinostat]
# Assay: as above
# Method in brief: as §1
row,Target,log2 fold change
1,S100A11 (UniProt P31949),inactive: 0.011
2,SASH1 (UniProt O94885),inactive: 0.167
3,RRP36 (UniProt Q96EU6),inactive: -0.04
4,SEC11A isoform 3 (UniProt P67812),inactive: 0.033
5,SCAF8 isoform 2 (UniProt Q9UPN6),inactive: 0.058
6,RSBN1 (UniProt Q5VWQ0),inactive: -0.019
7,SAP18 isoform 2 (UniProt O00422),inactive: -0.055
8,SCARB2 (UniProt Q14108),inactive: 0.026
9,RSRC1 (UniProt Q96IZ7),inactive: 0.049
10,SEC23IP (UniProt Q9Y6Y8),inactive: 0.055
11,SCYL2 (UniProt Q6P3W7),inactive: 0.04
12,RWDD1 (UniProt Q9H446),inactive: 0
13,RTN4IP1 (UniProt Q8WWV3),inactive: 0.316
14,SDHAF2 (UniProt Q9NX18),inactive: -0.026
15,SCFD2 (UniProt Q8WU76),inactive: 0.061
16,S100PBP (UniProt Q96BU1),inactive: 0.011

row,Target,log2 fold change
1,RWDD4 (UniProt Q6NW29),inactive: 0.044
2,SAFB isoform 3 (UniProt Q15424),inactive: -0.067
3,RTCB (UniProt Q9Y3I0),inactive: -0.012
4,SDHC (UniProt Q99643),inactive: 0.033
5,SDHAF3 (UniProt Q9NRP4),inactive: 0.025
6,SAR1B (UniProt Q9Y6B6),inactive: 0.037
7,SBDS (UniProt Q9Y3A5),inactive: 0.037
8,SEC11C (UniProt Q9BY50),inactive: 0.012
9,S100P (UniProt P25815),inactive: -0.046
10,SCIN (UniProt Q9Y6U3),inactive: 0.004
11,RTF2 (UniProt Q9BY42),inactive: 0.133
12,SCG3 (UniProt Q8WXD2),inactive: -0.015
13,SCO2 (UniProt O43819),inactive: -0.001
14,SCAMP1 (UniProt O15126),inactive: -0.016
15,SCAMP3 (UniProt O14828),inactive: -0.016
16,RRP12 (UniProt Q5JTH9),inactive: -0.064

# Compound: O=C(O)c1ccc2c(c1)nc(Nc1cccc(Cl)c1)c1ccncc12 [silmitasertib]
# Assay: as above
# Method in brief: as §1
row,Target,log2 fold change
1,S100A11 (UniProt P31949),inactive: -0.003
2,SASH1 (UniProt O94885),inactive: 0.033
3,RRP36 (UniProt Q96EU6),inactive: 0.143
4,SEC11A isoform 3 (UniProt P67812),inactive: 0
5,SCAF8 isoform 2 (UniProt Q9UPN6),inactive: -0.003
6,RSBN1 (UniProt Q5VWQ0),inactive: 0.15
7,SAP18 isoform 2 (UniProt O00422),inactive: 0.182
8,SCARB2 (UniProt Q14108),inactive: 0.045
9,RSRC1 (UniProt Q96IZ7),active: -0.275
10,SEC23IP (UniProt Q9Y6Y8),inactive: -0.03
11,SCYL2 (UniProt Q6P3W7),inactive: -0.004
12,RWDD1 (UniProt Q9H446),inactive: 0.036
13,RTN4IP1 (UniProt Q8WWV3),inactive: 0.069
14,SDHAF2 (UniProt Q9NX18),inactive: -0.007
15,SCFD2 (UniProt Q8WU76),inactive: 0.071
16,S100PBP (UniProt Q96BU1),inactive: -0.004

row,Target,log2 fold change
1,RWDD4 (UniProt Q6NW29),inactive: -0.004
2,SAFB isoform 3 (UniProt Q15424),inactive: 0.152
3,RTCB (UniProt Q9Y3I0),inactive: -0.003
4,SDHC (UniProt Q99643),inactive: 0.032
5,SDHAF3 (UniProt Q9NRP4),inactive: 0.107
6,SAR1B (UniProt Q9Y6B6),inactive: 0.005
7,SBDS (UniProt Q9Y3A5),inactive: -0.015
8,SEC11C (UniProt Q9BY50),inactive: -0.003
9,S100P (UniProt P25815),inactive: -0.055
10,SCIN (UniProt Q9Y6U3),inactive: 0.033
11,RTF2 (UniProt Q9BY42),inactive: 0.133
12,SCG3 (UniProt Q8WXD2),inactive: -0.029
13,SCO2 (UniProt O43819),inactive: -0.078
14,SCAMP1 (UniProt O15126),inactive: 0.038
15,SCAMP3 (UniProt O14828),inactive: -0.039
16,RRP12 (UniProt Q5JTH9),inactive: 0.121
